Assay results from article PMC6429042.
Results are given in words; binding and its absence hold for the method and conditions named. Some binding calls cover weakened binding; strength is not graded here. Sequences can lack the tags named with a protein.

Chains of the proteins cited; added tags and fusions are not shown. Lines headed by an entry give the natural chain unless they say otherwise; changes in a name come on top.
UniProt P25454: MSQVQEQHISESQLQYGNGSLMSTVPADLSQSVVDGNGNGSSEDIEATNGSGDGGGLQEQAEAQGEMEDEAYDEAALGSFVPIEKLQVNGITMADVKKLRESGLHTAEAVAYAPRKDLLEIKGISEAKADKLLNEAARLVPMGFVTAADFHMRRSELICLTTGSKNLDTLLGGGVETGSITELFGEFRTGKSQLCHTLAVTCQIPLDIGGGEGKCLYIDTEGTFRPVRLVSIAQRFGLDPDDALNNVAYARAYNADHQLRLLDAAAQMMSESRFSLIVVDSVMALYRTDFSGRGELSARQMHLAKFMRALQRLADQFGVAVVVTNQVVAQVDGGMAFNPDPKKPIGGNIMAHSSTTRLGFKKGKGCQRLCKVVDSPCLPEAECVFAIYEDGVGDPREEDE

Target: T1, Saccharomyces cerevisiae Rad54, yeast two-hybrid bait (pGBDUC1/RAD54) (S. cerevisiae) (UniProt P32863)
T1 sequence: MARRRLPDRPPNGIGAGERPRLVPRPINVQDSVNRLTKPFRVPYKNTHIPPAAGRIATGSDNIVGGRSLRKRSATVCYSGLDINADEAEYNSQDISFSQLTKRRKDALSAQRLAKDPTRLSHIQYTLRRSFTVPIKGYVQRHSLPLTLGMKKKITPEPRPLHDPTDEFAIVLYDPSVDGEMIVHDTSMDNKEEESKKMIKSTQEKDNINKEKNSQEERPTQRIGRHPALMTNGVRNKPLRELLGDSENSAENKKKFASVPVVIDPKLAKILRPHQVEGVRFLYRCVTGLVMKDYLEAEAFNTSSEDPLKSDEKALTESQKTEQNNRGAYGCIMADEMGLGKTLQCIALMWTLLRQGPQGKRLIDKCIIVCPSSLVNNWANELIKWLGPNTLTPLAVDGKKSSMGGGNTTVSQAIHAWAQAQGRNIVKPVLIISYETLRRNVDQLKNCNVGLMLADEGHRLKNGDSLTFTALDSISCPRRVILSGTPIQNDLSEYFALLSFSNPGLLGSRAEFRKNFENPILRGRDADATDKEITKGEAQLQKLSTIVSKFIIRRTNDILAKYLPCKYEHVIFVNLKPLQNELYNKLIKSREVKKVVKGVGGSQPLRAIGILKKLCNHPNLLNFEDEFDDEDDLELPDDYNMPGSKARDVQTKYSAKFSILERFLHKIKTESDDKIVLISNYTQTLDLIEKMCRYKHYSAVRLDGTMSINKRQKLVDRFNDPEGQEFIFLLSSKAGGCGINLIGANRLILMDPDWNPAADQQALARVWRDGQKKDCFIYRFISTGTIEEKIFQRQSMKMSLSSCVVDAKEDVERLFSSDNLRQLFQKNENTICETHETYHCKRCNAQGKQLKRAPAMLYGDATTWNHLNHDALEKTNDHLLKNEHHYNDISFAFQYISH
Assay: two-hybrid; prey in pGADC1, bait in pGBDUC1, strain pJ694a; serial dilutions spotted on SC-Ura-Leu and SC-Ura-Leu-Ade, 30°C, 3 to 4 days

Row | binding | Substance
1 | binds | Saccharomyces cerevisiae Rad51 E108L, yeast two-hybrid fusions (pGADC1/E108L-rad51 prey and pGBDUC1/E108L-rad51 bait) (from UniProt P25454 1-400)
2 | binds | Saccharomyces cerevisiae Rad51, wild type, yeast two-hybrid fusions (pGADC1/RAD51 prey and pGBDUC1/RAD51 bait) (from UniProt P25454 1-400)
